This data set is described as follows: Sensory test of odor of the compound in liquid hair dye base first preparation by five special panelists. Set-up: key to odor (sensory test): C: odor is felt; B: odor is slightly felt; A: odor is hardly felt.

Four compounds from patent publication US7753966B2, “Hair dye stabilizer” (Takasago International Corporation, priority 2006, dated 2010) can be followed below.

As for `CC(C)=CCC/C(C)=C/CS` [thiogeraniol, (E)-3,7-dimethyl-2,6-octadien-1-thiol], the “odor (sensory test)” value reads like this: (Amount added 0.00001 %) “A”; (Amount added 0.0001 %) “A”; (Amount added 0.001 %) “A”; (Amount added 0.002 %) “B”; (Amount added 0.005 %) “C”; (Amount added 0.008 %) “C”. Moreover, the “odor (sensory test)” value is listed as “C” (Amount added 0.01 %) and “C” (Amount added 0.1 %). Further, the “amount to be added at which the odor is not an unpleasant odor” value (based on the total weight of a hair dye including a base) is at most 0.002 % by weight.

For `CC1CCC(C(C)(C)S)C(=O)C1` (stereo not shown) [8-Mercaptomenthone], the “odor (sensory test)” value (Amount added 0.00001 %) is listed as “A”; the “odor (sensory test)” value (Amount added 0.0001 %) is given as “A”; the “odor (sensory test)” value (Amount added 0.001 %) is recorded as “A”; the “odor (sensory test)” value (Amount added 0.002 %) is reported as “A”; the “odor (sensory test)” value (Amount added 0.005 %) was “A”; the “odor (sensory test)” value (Amount added 0.008 %) is “A”. For the same compound, the “odor (sensory test)” value reads like this: (Amount added 0.01 %) “B”; (Amount added 0.1 %) “C”.

Take `CC1=CCC(C(C)(C)S)CC1` (stereo not shown) [Limonenethiol]: the “odor (sensory test)” value (Amount added 0.00001 %) is recorded as “A”; the “odor (sensory test)” value (Amount added 0.0001 %) is on record as “A”; the “odor (sensory test)” value (Amount added 0.001 %) is listed as “A”; the “odor (sensory test)” value (Amount added 0.002 %) is listed as “B”; the “odor (sensory test)” value (Amount added 0.005 %) is given as “C”; the “odor (sensory test)” value (Amount added 0.008 %) is recorded as “C”. The “odor (sensory test)” value by setting is: (Amount added 0.01 %) “C”; (Amount added 0.1 %) “C”.

Turning to `OCCS` [thioglycol, 2-mercaptoethanol], the “odor (sensory test)” value was “A” (Amount added 0.00001 %); “A” (Amount added 0.0001 %); “A” (Amount added 0.001 %); “A” (Amount added 0.01 %); “A” (Amount added 0.02 %); “B” (Amount added 0.05 %). Moreover, the “odor (sensory test)” value reads like this: (Amount added 0.08 %) “C”; (Amount added 0.1 %) “C”; (Amount added 1 %) “C”.
